Values from PubChem BioAssay AID1053208 (Peter MacCallum Cancer Centre, 2014).
Aim: 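Find knock-downs that sensitise mouse osteosarcoma cells to doxorubicin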 (primary screen). Cell system: mouse osteosarcoma cells, early-passage culture from an engineered mouse model of fibroblastic bone tumour. Reagent: siRNA pool against mouse genes, 40 nM. Time to read-out: about 120 h (48 h before drug, then 72 h with drug). Treatment: doxorubicin 100 nM for 72 h, roughly 30-40% inhibitory dose. Detection: 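Luminescent ATP signal taken as viability with or without 100 nM doxorubicin for 72 h; mean of two wells set against non-targeting siRNA and turned into robust z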. Reading the numbers: viability z-score with doxorubicin and doxorubicin viability vs non-targeting: higher = more viable cells under doxorubicin; viability z-score without drug: higher = more viable cells with knock-down alone; z-score of drug to no-drug ratio: higher = less drug sensitisation by knock-down. Active means: 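a pool counts as active when its viability z-score with doxorubicin is -2 or below and its z-score without drug lies between -2 and 2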.
This is a random part of about 17,000 reagents. 788 of them (4.7%) were called active. 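Calls rest on z-score classes alone; an extra cut-off of viability at most 70% of control was not applied to them.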 A reagent listed more than once was tested more than once; the source does not tell the runs apart. No sequences are given here.

The opening 6 entries, to show the layout:
no.	Target gene	combined z-score class	viability z-score with doxorubicin	viability z-score without drug	z-score of drug to no-drug ratio	doxorubicin viability vs non-targeting	activity call
1	Nxf1	low cell count with and without drug	-7.19	-7.93	-4.05	0.3	inactive
2	Tbx4	no change with or without drug	-0.45	0.34	-0.56	0.9	inactive
3	Pja1	no change with or without drug	0.45	1.18	-0.22	0.98	inactive
4	Cpt1a	no change with or without drug	0.22	-0.51	0.67	0.96	inactive
5	Pcx	no change with or without drug	0	-0.17	0.22	0.94	inactive
6	Cd3e	no change with or without drug	1.01	-0.34	1.46	1.03	inactive

The listing, from the first entry:
no.	Target gene	combined z-score class	viability z-score with doxorubicin	viability z-score without drug	z-score of drug to no-drug ratio	doxorubicin viability vs non-targeting	activity call
1	Nxf1	low cell count with and without drug	-7.19	-7.93	-4.05	0.3	inactive
2	Tbx4	no change with or without drug	-0.45	0.34	-0.56	0.9	inactive
3	Pja1	no change with or without drug	0.45	1.18	-0.22	0.98	inactive
4	Cpt1a	no change with or without drug	0.22	-0.51	0.67	0.96	inactive
5	Pcx	no change with or without drug	0	-0.17	0.22	0.94	inactive
6	Cd3e	no change with or without drug	1.01	-0.34	1.46	1.03	inactive
7	Cd3e	no change with or without drug	0	-1.01	0.9	0.94	inactive
8	Or5p64	no change with or without drug	-1.57	0	-1.57	0.8	inactive
9	Hif3a	high cell count without drug only	0.67	2.36	-0.67	1	inactive
10	Evi5l	no change with or without drug	-0.67	-1.18	0.22	0.88	inactive
11	Ppp2r5b	no change with or without drug	1.57	-0.17	1.91	1.08	inactive
12	Or5k1	no change with or without drug	-0.79	0.51	-1.01	0.87	inactive
13	Actb	no change with or without drug	-0.67	-1.85	0.79	0.88	inactive
14	H2aj	no change with or without drug	1.57	0.51	1.35	1.08	inactive
15	Lzts2	no change with or without drug	-0.67	0.84	-1.12	0.88	inactive
16	Scin	low cell count with doxorubicin only	-2.7	-0.51	-2.47	0.7	active
17	Vps9d1	no change with or without drug	1.35	-0.17	1.69	1.06	inactive
18	Srpk3	no change with or without drug	0	-1.69	1.46	0.94	inactive
19	Defb1	no change with or without drug	0.22	0.17	0.22	0.96	inactive
20	1110038F14Rik	no change with or without drug	-0.22	-0.51	0.22	0.92	inactive
21	Hinfp	no change with or without drug	-1.8	-0.17	-1.69	0.78	inactive
22	Ncoa5	no change with or without drug	0.67	-1.01	1.57	1	inactive
23	Serpina3m	no change with or without drug	-1.01	-0.51	-0.67	0.85	inactive
24	Efna3	no change with or without drug	0.45	-0.17	0.67	0.98	inactive
25	Raet1c	no change with or without drug	0	0.34	-0.11	0.94	inactive
26	Adam19	no change with or without drug	-0.22	0.51	-0.45	0.92	inactive
27	Mgl2	no change with or without drug	-0.22	-0.67	0.34	0.92	inactive
28	Xirp1	low cell count with and without drug	-3.26	-2.87	-1.69	0.65	inactive
29	Dedd	no change with or without drug	0.9	-1.18	2.02	1.02	inactive
30	Zfp606	no change with or without drug	-0.22	1.52	-1.12	0.92	inactive
31	Sap30	no change with or without drug	0.9	0.84	0.45	1.02	inactive
32	Tmem184c	no change with or without drug	-1.57	-0.84	-1.01	0.8	inactive
33	Uqcrc2	low cell count without drug only	-1.24	-3.04	1.12	0.83	inactive
34	Csf3r	high cell count without drug only	1.57	2.19	0.22	1.08	inactive
35	Bmyc	no change with or without drug	0	0.51	-0.22	0.94	inactive
36	Slc39a4	no change with or without drug	0.22	0	0.34	0.96	inactive
37	Slc5a3	low cell count with doxorubicin only	-2.02	-0.51	-1.69	0.76	active
38	Cldn16	no change with or without drug	0.34	-0.84	1.12	0.97	inactive
39	Gck	no change with or without drug	0.11	-0.51	0.56	0.95	inactive
40	Arpc5	no change with or without drug	-0.45	-1.18	0.45	0.9	inactive
41	Obox1	no change with or without drug	-0.45	0.17	-0.45	0.9	inactive
42	Mmp7	high cell count without drug only	0.67	2.02	-0.56	1	inactive
43	Tmem106b	no change with or without drug	1.69	0.34	1.57	1.09	inactive
44	Cpb1	no change with or without drug	0.56	1.18	-0.11	0.99	inactive
45	Mmp23	low cell count with doxorubicin only	-2.02	0.51	-2.25	0.76	active
46	Cxxc5	no change with or without drug	-0.22	-1.18	0.79	0.92	inactive
47	Smc5	low cell count with doxorubicin only	-2.47	-0.84	-2.02	0.72	active
48	Mrpl2	no change with or without drug	0.9	-0.17	1.24	1.02	inactive
49	Gpbar1	no change with or without drug	0.22	-1.52	1.57	0.96	inactive
50	Ndufb8	low cell count with and without drug	-2.02	-3.54	0.56	0.76	inactive
